At least one structure is not confirmed: it was looked up by name or label, or the drawing left a doubt.
Columns and labels:
vein grafts = conditions: pravastatin peri-adventitial via Pluronic F-127 gel immediately after transplantation; up to 4 weeks; cited from earlier work
jugular vein isografts = experiment: Neointimal formation in jugular vein isografts (cuff model; H&E and SMA staining, morphological analysis); type: in vivo, C57BL/6J mice
Protocol: (§1) Male C57BL/6J mice were purchased from Vital River Laboratory Animal Technology Co. Ltd, Beijing, China, and housed under a 12:12 h light-dark cycle and given free access to food and water. All animal experiments were performed according to National Institutes of Health Guidelines for the Care and Use of Laboratory Animals and approved by the Institutional Animal Care and Usage Committees at Shandong University and the University of South Carolina, USA. The jugular vein transplantation was performed using different male C57BL/6J mice as donors and recipients. Briefly, 12-wk-old male C57BL/6J mice were anesthetized with pentobarbital sodium (50 mg/kg body weight, i.p.). The operation was performed under a dissecting microscope (SZ2-ILST, Olympus Corporation, Tokyo, Japan). The right common carotid artery of a male C57BL/6J mouse was mobilized and divided. A 1-mm cuff with a 1-mm handle (0.65 mm in diameter outside and 0.5 mm inside, F 800/200/100/200, Portex Ltd) was placed on both ends of the artery, and the ends were reverted over the cuff and ligated with an 8-0 silk ligature (130715, 130715, LingQiao). External jugular vein (1 cm) from a donor mouse was harvested and washed with saline solution, and grafted between the 2 ends of the carotid artery without changing the direction of blood flow. The ischemia time of vein segments was less than 15 min. The results are shown in Examples 7-9.
Mice at 0, 1, 3, 7, 14, 21 and 42 days after transplantation (four randomly chosen mice at each time point) were anesthetized with pentobarbital sodium (50 mg/kg body weight, i.p.) and euthanized by exsanguination. […]
From the proximal end, the last section with the cuff tube was counted as #0. […]
Tissue sections were subjected to hematoxylin and eosin (H&E) or immunofluorescence staining as previously described^41. […] Fluorescent images were acquired by Nikon Eclipse Ti or UltraVIEW®VOX confocal microscope and analyzed with the Volocity software (PerkinElmer, Waltham, Mass., USA). […]

[1] = system: resident VSCs (Sca-1+, NFM+, Sox17+ cells) in jugular vein isografts; experiment: Immunofluorescence staining of VSC and SMC markers (Sca-1, Ki67, SMA, NFM, Sox17) in jugular vein isografts after drug treatment; type: in vivo, C57BL/6J mice
Protocol: as §1
Mice at 0, 1, 3, 7, 14, 21 and 42 days after transplantation (four randomly chosen mice at each time point) were anesthetized with pentobarbital sodium (50 mg/kg body weight, i.p.) and euthanized by exsanguination. Blood vessels were fixed with 10% formalin under 100 mmHg (13.3 kPa) pressure for 10 min and then washed with by 0.9% NaCl for 5 min. The vein grafts were harvested by cutting the transplanted segments from the native carotid arteries at the two cuff ends. The proximal ends of vein grafts were marked with 8-0 silk ligature. These grafts were further fixed with 4% phosphate-buffered formaldehyde at 4° C. for 24 h, and then embedded in paraffin or OCT for sectioning. All the vein grafts were sectioned from the proximal end.
Tissue sections were subjected to hematoxylin and eosin (H&E) or immunofluorescence staining as previously described^41. Nuclei were counterstained with 4,6-diamidino-2-phenylindole (DAPI, cat#: C1002, Beyotime, Shanghai, China). Primary antibodies used were anti-SMA (Cat#: A5228SM, Sigma-Aldrich, St. Louis, Mo., USA. 1:500 dilution), anti-SOX17 (Cat#: 09-038, Millipore, Temecula, Calif., USA. 1:200 dilution), anti-NFM (Cat#: N4142, Sigma-Aldrich, 1:500 dilution), anti-Sca-1 (Cat#: 553333, BD, Franklin Lakes, N.J., USA. 1:200 dilution), anti-Smoothelin (Cat#: Sc-28562, Santa Cruz Biotechnology, Inc., Dallas, Tex., USA. 1:200 dilution), anti-SM-MHC (Cat#: 5121-, Epitomics, Burlingame, Calif., USA. 1:200 dilution) and anti-Ki67 (Cat#: Ab15580, Abcam, Cambridge, UK. 1:200 dilution). Corresponding fluorescent-conjugated IgG antibodies were used as secondary antibodies (Invitrogen). Fluorescent images were acquired by Nikon Eclipse Ti or UltraVIEW®VOX confocal microscope and analyzed with the Volocity software (PerkinElmer, Waltham, Mass., USA). In some images of immunofluorescence staining, the colors of biomarkers sometimes may not be the colors of the emitting light but the pseudo-colors generated by the Volocity software (PerkinElmer, Waltham, Mass., USA). […]

Sca-1+ VSCs = experiment: Sca-1+ cell growth in stem cell growth medium (daily cell count for 8 days; [3H]thymidine uptake); type: cell-based, mouse; conditions: simvastatin 3 μM; growth curve 8 days and [3H]thymidine uptake
[2] = local simvastatin, day 3 and 7, relative to control
[3] = peri-vascular simvastatin, day 3 and 7, vs vehicle

SMILES	neointimal hyperplasia in vein grafts (vein grafts)	neointimal formation in vein isografts (jugular vein isografts; simvastatin 1.6 mg/kg/d intragastric, started 3 days after transplantation, 4 wks after transplantation)	neointimal formation in vein isografts (jugular vein isografts; simvastatin 1.6 mg/kg/d intragastric, started 3 days before transplantation, 4 weeks after transplantation)	neointimal formation in vein isografts (jugular vein isografts; simvastatin (30 μmon) peri-vascular in Pluronic F-127 gel immediately after transplantation, 4 weeks)	increase in the number of NFM+ cells in vein isografts [1, 2]	increase in the number of Sox17+ cells in vein isografts [1, 2]	double positive cells with Sca-1 and Ki67 in vein grafts [1, 3]	double positive cells with Sca-1 and SMA in vein grafts [1, 3]	SMA+ cells in vein grafts ([1]; peri-vascular simvastatin, day 28 after transplantation, vs vehicle)	Sca-1+ cell proliferation in vitro (Sca-1+ VSCs)
CC[C@H](C)C(=O)O[C@H]1C[C@H](O)C=C2C=C[C@H](C)[C@H](CC[C@@H](O)C[C@@H](O)CC(=O)O)[C@H]21 [pravastatin]	reduced neointimal hyperplasia									
CCC(C)(C)C(=O)O[C@H]1C[C@@H](C)C=C2C=C[C@H](C)[C@H](CC[C@@H]3C[C@@H](O)CC(=O)O3)[C@H]21 [simvastatin]		failed to inhibit the neointimal formation	suppressed neointimal formation	effectively inhibited neointimal formation	suppressed the increases	suppressed the increases	almost wiped out	almost wiped out	dramatically suppressed	inhibited
